These results are taken from PubChem BioAssay AID1508600 (Functional Genomics Laboratory (NCATS/FGL), 2020).

Hit rate of the full screen: of about 53,000 sequences, about 3,700 (7%) were called active.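 How the source made its calls: active means gene knockdowns whose robust z-score for IL-1 alpha signal is at least 2 or at most -2, so actives lie on both sides; inactive means the rest.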 This is one part of the list.

This experiment is described as follows: Components of the Cytosolic LPS Sensing Pathway: Gene Identification via Genome-wide siRNA Screen.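 Further: robust z of the log signal after scaling to non-targeting control siRNA wells of the plate.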 Particulars: RAW264.7 macrophages, IL-1a HTRF, actives lie on both sides, screened at 100 nM (by protocol), cells primed 5 h with Pam3CSK4 first. Put shortly: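 Cells (RAW264.7, 1×10^4 per well) were transfected with siRNA at 100 nM and cultured 48h at 37 degrees C. Pam3CSK4 was added for 5 hours; LipidA transfection followed for 24 hour. IL-1a was then measured by HTRF.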
For GCUCAGUACUCAGAAGUGCTT against Olfr578, the z-score is inactive: 0.328. The value for GCUAGUUGAGGACUGAUAUTT against Chrna4 was inactive: 1.34; that for GGCUUUCGCUAGAAAACUCTT against Sftpc was inactive: 0.531; that for GGUAGGACCCAAACAUGUATT against Klhl31 was inactive: -0.0474. The value for GCUGCCUAUGGCUUCUUCCTT against Tmem160 was inactive: -1.37; that for GGGCACUCAAGUGUAUGUCTT against Hpx was inactive: 0.224.

For the sequence CCUCAAGGAUAAUUAUUACTT against Mgat4d, the z-score was inactive: -1.56. The value for GCUGGGACUGCUUGAGAUATT against AF067063 was inactive: -0.338; that for CCAAUUAUGUGAGAAGUGATT against Snx24 was inactive: 0.463; that for GGCUGUGGUCUUCAUUGAATT against Tpcn2 was inactive: -0.467. For GUGCUUGAUCUCUUCGAUGTT against Ppt2, the z-score was inactive: 0.207. The value for GGAGGAGAGGAGAAUAGCATT against Atp5k was inactive: -0.586; that for CCUACCGAGGUCAAGAAUUTT against Asf1a was inactive: -1.27; that for GGACUCAUCUUUAUUAUUCTT against Olfr393 was inactive: -0.324. The value for GGAUCAGAUUCUCUUCUUCTT against Gypa was inactive: 0.531; that for GGGCUAAGUACCAAACUCATT against Ly6e was inactive: -1.71. In the case of GGAGAAGUGACUUUUUCGUTT against Herc4, the z-score is inactive: 0.564. With CCUUAUAGCUAUGACUUUCTT against Tas2r136, the z-score is inactive: 0.172.

GGUAAACCGAGUGAUGACCTT against Ift43: the z-score is inactive: 1.38. The value for GGAAAGGAAAAAAAAGGAATT against Dync1i2 was inactive: 0.282; that for GGAGCGAGAGUAUCUAUUGTT against Trp53i13 was inactive: -0.355.

With GCGCACAACAGACUUCUAUTT against Epm2a, the z-score is inactive: 0.0628. The value for GGAUGGAAAUAAAUUCACATT against Fabp2 was inactive: -1.81. The value for GCAACUAGCGUGUGUUCCUTT against Arpc1a was active: 2.4; that for GGAAGGAUUGCCUUUAGGATT against Rbm12b2 was inactive: 0.29. On to GGAGAUGGAAAAGAACAGATT against Dtnb, for which the z-score is inactive: 1.55.

For the sequence GGUUCUGCUGUACUCCUUGTT against Wrap73, the z-score is inactive: 1.36.

Consider GGUCUAUGGCUUAAACUUUTT against Evl, for which the z-score was inactive: 0.68. The value for CCCGGAACUUAACUCUGUATT against Gm5148 was inactive: -1.51. The value for GGAGACAAUAAUUGAAGAUTT against Gabpb2 was inactive: -1.4; that for CCUGGACACGAUUUCAGAGTT against Rbm6 was inactive: 1.18; that for GGAGAGCGAAGAAAAAAUGTT against Birc2 was inactive: -0.852. The value for GGUCCAUAAAGAAACCAUATT against Zfp207 was inactive: 0.436; that for AGAACAGAGGGCUACCUUGTT against Ly6g6e was inactive: 1.37. As to GGAGCUGCGCUUGACAUUGTT against Neil1, the z-score is inactive: -1.6. The value for GGCUCUUAUUUUUGUAAAGTT against Rgl1 was inactive: -1.61. Take GGAAAUCCCGGGAUGUCAGTT against Pnliprp2: the z-score was inactive: -1.45. The value for GGAUACUUUUCUUCUAAGATT against Krtap15 was inactive: -1.44; that for CCUUUCCCUCCAUUUAGGGTT against Sit1 was inactive: -1.46; that for CUUUGUACUAUGGUUCAAUTT against Olfr1010 was inactive: -1.49. As to GGAGUCCACAUGGAAAUCATT against Mei4, the z-score was inactive: 0.383. The value for GGCUAUGUUCACCUGUGGATT against Kbtbd12 was active: -2.66; that for CCUGAUAAGCAAAUACGGCTT against Rep15 was inactive: -0.893. The value for GGAGCUAGGAAGGUGGUAGTT against Mutyh was inactive: -1.77; that for CCAGGACAAUAACUCUGAGTT against Aatk was inactive: -1.28. The value for GCUCCUGUUUAAGCAUAUGTT against Nalcn was inactive: 0.98; that for GGUAACUGUCCAGAAUCAGTT against Psapl1 was inactive: 0.0896.

For the sequence CGGCUUACCGUAUUCAUCGTT against Dhx32, the z-score is inactive: 0.69. Regarding GGAAAAUAGUGGAAGCCUGTT against Atg3, the z-score was inactive: -0.371.

For the sequence GACAAGAACCCGGAUAAUATT against Dnajb2, the z-score was inactive: -0.229. As to AGGUCAAAAGAAGCCGGAATT against Bud31, the z-score was inactive: 0.559. The value for CGGUAUCACGGUUAUCCUUTT against Olfr215 was inactive: 0.932. The value for CCUUGGCCAAUCUCCACAATT against Ptpmt1 was inactive: -0.485; that for GGACAUUGGUCCAAAGAGUTT against Rbm4b was inactive: -0.939. The value for GGAUCUUGAAGACCAAAAATT against Kazn was active: -2.14; that for CCUUUAAAAGCAAUGACGGTT against Iffo1 was inactive: -0.733.

Consider GGGAGUGCCCUCCUAAUAGTT against Ofd1, for which the z-score is inactive: -1.21. The value for GGAGCCUUUAAUCUCAUUATT against Wbp1 was inactive: -0.463; that for GCUGGGCUUCAACGAUUACTT against Efna4 was inactive: 1.3. Consider GCUCUACAUCGAAUUGCUGTT against Lig4, for which the z-score was active: 4.14. Consider CCAGCAUAGAGUACCAGUGTT against Unc13d, for which the z-score was inactive: 1.

For GGAUUACCUUUUGUGUGACTT against Capzb, the z-score is inactive: -0.776. The value for GGUGCUUCUGGAAAAGUUGTT against Far1 was inactive: 0.412. On to GGCUAAUUCUCAAAGAGAUTT against Dnttip2, for which the z-score was inactive: -1.87. As to GCUAACGUACCUGUAACUUTT against Cnp, the z-score was inactive: -0.484. Regarding GCACUGCAACACUUGGUCCTT against Lcn12, the z-score was inactive: -0.99.

On to GGGAAAUAAGGAGCUUCCUTT against Ptgs2, for which the z-score was inactive: 0.285. As for GCACUUUACGAGUAUGUAATT against Gnl1, the z-score was inactive: -1.74. The value for CGCUAUAACCAUUAGGUCUTT against Slc22a17 was inactive: 0.742; that for GGAGUUGUUACUCUAUUUUTT against Pkd2l2 was inactive: -0.426; that for GGUAUUUGUAAAUUUGAGGTT against Atl1 was inactive: 0.309. For the sequence GGCAUGAAUAGAAUUCUAGTT against Zfp367, the z-score was inactive: 1.29. The value for GCAAAUAUAGCAGUGAAAUTT against Nat1 was inactive: 0.0532. The value for CCAACACCAUUCAAAUAGATT against Kcnh5 was inactive: -0.427; that for GGUGAUCCUCAUCAUCAGUTT against Lmf1 was inactive: -0.297; that for GCUCAGAAUACAUGGAGCUTT against Btn1a1 was inactive: 0.957. GGCUGUUUCUGUCAUGGUUTT against Nup133: the z-score was inactive: 0.383. The value for GGUCAGACAGCAAUUCACATT against Gpr146 was active: -2.7; that for GGAUGCCCUUGUCACAAAGTT against Fbl was inactive: 0.154; that for GCUAUGGAGGCUAUGGAUGTT against Krtap19-1 was inactive: -0.418. As for GGAAAGAGGAAAUCUUUAGTT against Furin, the z-score was active: 2.04. The value for CCUUCCGUUUAGUUUUAUGTT against Prune2 was inactive: -0.386; that for GCUAGAAGCUUUCUAUUCUTT against Hsph1 was inactive: 1.68. The value for CCACCAGUAAGCAAAAGCGTT against Dtx1 was inactive: -1.56; that for GGAAUUUUCAAGUUGAUGUTT against Kmo was inactive: 0.578.

As for GGCAUUGUUAGACUUGGCCTT against Slc7a7, the z-score was inactive: 0.0848. The value for GGCAAAGUGAGUAAGACAGTT against Habp2 was inactive: 0.0806; that for GUGUGUUUACUCAUUUCCATT against H2-T3 was inactive: 0.926. The value for CGGUGUUAAAUCCAUGAGUTT against Hjurp was inactive: 0.689; that for GGAACAAAUCACCUGCUGUTT against Ext2 was inactive: -0.00439. The value for GGUGAUGCACUAUUAAGAATT against B3galnt2 was inactive: -0.111; that for GCCAAUUGGCAGUUCUGCATT against Cd6 was inactive: -0.937; that for GGUGGCUAAAAGCUCUUCCTT against Odc1 was inactive: 1.9. In the case of GGUCAGGUUCCUGACACAATT against Ppp6c, the z-score is inactive: 1.67. The value for GGAUAACUAUAUUCCAGUGTT against Rhobtb3 was inactive: 0.885; that for GGGUCUUCUGACAAUGCUUTT against Zfyve19 was inactive: -0.145; that for GGCUUUCUGGGAACAGAGATT against Epyc was inactive: -0.211. The value for GGAAGCAAAGGAAAAGACUTT against Mia2 was inactive: 0.832; that for GGGAAAAUGCUUUGUUGGATT against Cnot9 was inactive: -0.215. The value for GAACUGAGGAGCCUCAAAUTT against Klra20 was inactive: 0.765; that for GGAGAUCAUCGACCCAGUGTT against Tuba4a was inactive: -0.677. Regarding GACCAGAUCCAGAAAUCGGTT against Ccdc57, the z-score is inactive: -1.19. The value for CAGGCAUCACUUCAGGGUGTT against Klra21 was inactive: 0.102. GGGAUAGGCUUAAACUCAUTT against Pramel13: the z-score was inactive: 1.13. The value for CCUUUGAAAAGUUACCUCCTT against Klk1b16 was inactive: 1.9. The value for GGUAUAUUUGCCAAAUGAUTT against Klhdc1 was inactive: -0.445; that for GGAGCGGAUGGAUGUUUGUTT against App was inactive: 1.05.

Consider GCACUCUGUUCAGCUAAAATT against Tafa3, for which the z-score is active: 2.16.
